{
  "source": "the supplement of paper PMC8728848",
  "binders": {"B1": {"name": "AT5G17240(42) (Arabidopsis thaliana), Q6NQJ8 (protein)", "chain": "MDLEHQTMETFLRWAAEIGISDSIDSSRFRDSCLGHSLSVSDFPDAGGRGLGAARELKKGELVLKVPRKALMTTESIIAKDLKLSDAVNLHNSLSSTQILSVCLLYEMSKEKKSFWYPYLFHIPRDYDLLATFGNFEKQALQVEDAVWATEKATAKCQSEWKEAGSLMKELELKPKFRSFQAWLWASATISSRTLHVPWDSAGCLCPVGDLFNYDAPGDYSNTPQGPESANNVEEAGLVVETHSERLTDGGFEEDVNAYCLYARRNYQLGEQVLLCYGTYTNLELLEHYGFMLEENSNDKVFIPLETSLFSLASSWPKDSLYIHQDGKLSFALISTLRLWLIPQSQRDKSVMRLVYAGSQISVKNEILVMKWMSEKCGSVLRDLPTSVTEDTVLLHNIDKLQDPELRLEQKETEAFGSEVRAFLDANCLWDVTVLSGKPIEFSRKTSRMLSKWRWSVQWRLSYKRTLADCISYCNEKMNNLLGTQDRLRDL"}},
  "experiment_in_all_cases": "glycan array binding signal (z-score within array); higher = stronger binding",
  "details_in_all_cases": "glycan notation: IUPAC condensed, linker removed",
  "key": {"Kdn(a2-3)Gal(b1-3)GlcNAc": {"target": "Kdn(a2-3)Gal(b1-3)GlcNAc", "in_short": "(§1)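 Negative Z-scores can be read as non-binding. The Z-score is calculated within each array and then averaged across arrays of one protein sequence at different concentrations or buffers and across linkers. Arrays, 3228 in all, were curated from the Consortium for Functional Glycomics database and kept only where the protein sequence was available.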"}, "Kdn(a2-3)Gal(b1-4)Glc": {"target": "Kdn(a2-3)Gal(b1-4)Glc", "in_short": "as §1"}, "Kdn(a2-3)Gal(b1-4)GlcNAc": {"target": "Kdn(a2-3)Gal(b1-4)GlcNAc", "in_short": "as §1"}, "[1]": {"target": "Kdn(a2-3)Gal(b1-4)[Fuc(a1-3)]GlcNAc", "in_short": "as §1"}, "Kdn(a2-6)Gal(b1-4)GlcNAc": {"target": "Kdn(a2-6)Gal(b1-4)GlcNAc", "in_short": "as §1"}, "[2]": {"target": "Man(a1-2)Man(a1-2)Man(a1-3)Man", "in_short": "as §1"}, "[3]": {"target": "Man(a1-2)Man(a1-2)Man(a1-6)[Man(a1-3)]Man", "in_short": "as §1"}, "Man(a1-2)Man(a1-3)Man": {"target": "Man(a1-2)Man(a1-3)Man", "in_short": "as §1"}, "[4]": {"target": "Man(a1-2)Man(a1-3)[Man(a1-2)Man(a1-6)]Man", "in_short": "as §1"}, "[5]": {"target": "Man(a1-2)Man(a1-3)[Man(a1-2)Man(a1-6)]Man(a1-6)[Man(a1-2)Man(a1-2)Man(a1-3)]Man", "in_short": "as §1"}, "[6]": {"target": "Man(a1-2)Man(a1-3)[Man(a1-2)Man(a1-6)]Man(a1-6)[Man(a1-2)Man(a1-2)Man(a1-3)]Man(b1-4)GlcNAc(b1-4)GlcNAc", "in_short": "as §1"}, "[7]": {"target": "Man(a1-2)Man(a1-3)[Man(a1-6)]Man(a1-6)[Man(a1-2)Man(a1-3)]Man(b1-4)GlcNAc(b1-4)GlcNAc", "in_short": "as §1"}, "[8]": {"target": "Man(a1-2)Man(a1-6)[Man(a1-3)]Man(a1-6)[Man(a1-2)Man(a1-2)Man(a1-3)]Man", "in_short": "as §1"}, "[9]": {"target": "Man(a1-2)Man(a1-6)[Man(a1-3)]Man(a1-6)[Man(a1-2)Man(a1-2)Man(a1-3)]Man(b1-4)GlcNAc(b1-4)GlcNAc", "in_short": "as §1"}, "Man(a1-3)[Man(a1-6)]Man": {"target": "Man(a1-3)[Man(a1-6)]Man", "in_short": "as §1"}, "[10]": {"target": "Man(a1-3)[Man(a1-6)]Man(a1-6)[Man(a1-2)Man(a1-3)]Man(b1-4)GlcNAc(b1-4)GlcNAc", "in_short": "as §1"}, "[11]": {"target": "Man(a1-3)[Man(a1-6)]Man(a1-6)[Man(a1-3)]Man", "in_short": "as §1"}, "[12]": {"target": "Man(a1-3)[Man(a1-6)]Man(a1-6)[Man(a1-3)]Man(b1-4)GlcNAc(b1-4)GlcNAc", "in_short": "as §1"}, "[13]": {"target": "Man(a1-3)[Man(a1-6)]Man(b1-4)GlcNAc(b1-4)GlcNAc", "in_short": "as §1"}, "[14]": {"target": "Man(a1-3)[Man(a1-6)]Man(b1-4)GlcNAc(b1-4)[Fuc(a1-6)]GlcNAc", "in_short": "as §1"}, "Man(a1-6)Man": {"target": "Man(a1-6)Man", "in_short": "as §1"}, "Man(b1-4)GlcNAc": {"target": "Man(b1-4)GlcNAc", "in_short": "as §1"}, "MurNAc(b1-4)GlcNAc": {"target": "MurNAc(b1-4)GlcNAc", "in_short": "as §1"}, "Neu5Ac(a2-3)Gal": {"target": "Neu5Ac(a2-3)Gal", "in_short": "as §1"}, "[15]": {"target": "Neu5Ac(a2-3)Gal(b1-3)GalNAc", "in_short": "as §1"}, "[16]": {"target": "Neu5Ac(a2-3)Gal(b1-3)GalNAc(b1-3)Gal(a1-4)Gal(b1-4)Glc", "in_short": "as §1"}, "[17]": {"target": "Neu5Ac(a2-3)Gal(b1-3)GalNAc(b1-4)[Neu5Ac(a2-3)]Gal(b1-4)Glc", "in_short": "as §1"}, "[18]": {"target": "Neu5Ac(a2-3)Gal(b1-3)GalNAc(b1-4)[Neu5Ac(a2-8)Neu5Ac(a2-3)]Gal(b1-4)Glc", "in_short": "as §1"}, "[19]": {"target": "Neu5Ac(a2-3)Gal(b1-3)GalNAc6S", "in_short": "as §1"}, "[20]": {"target": "Neu5Ac(a2-3)Gal(b1-3)GlcNAc", "in_short": "as §1"}, "[21]": {"target": "Neu5Ac(a2-3)Gal(b1-3)GlcNAc(b1-2)Man", "in_short": "as §1"}, "[22]": {"target": "Neu5Ac(a2-3)Gal(b1-3)GlcNAc(b1-2)Man(a1-3)[GlcNAc(b1-4)][Neu5Ac(a2-3)Gal(b1-3)GlcNAc(b1-2)Man(a1-6)]Man(b1-4)GlcNAc(b1-4)GlcNAc", "in_short": "as §1"}, "[23]": {"target": "Neu5Ac(a2-3)Gal(b1-3)GlcNAc(b1-2)Man(a1-3)[Neu5Ac(a2-3)Gal(b1-3)GlcNAc(b1-2)Man(a1-6)]Man(b1-4)GlcNAc(b1-4)GlcNAc", "in_short": "as §1"}, "[24]": {"target": "Neu5Ac(a2-3)Gal(b1-3)GlcNAc(b1-3)Gal(b1-3)GlcNAc", "in_short": "as §1"}, "[25]": {"target": "Neu5Ac(a2-3)Gal(b1-3)GlcNAc(b1-3)Gal(b1-4)GlcNAc", "in_short": "as §1"}, "[26]": {"target": "Neu5Ac(a2-3)Gal(b1-3)GlcNAc(b1-3)GalNAc", "in_short": "as §1"}, "[27]": {"target": "Neu5Ac(a2-3)Gal(b1-3)GlcNAc(b1-4)Gal(b1-4)Glc", "in_short": "as §1"}, "[28]": {"target": "Neu5Ac(a2-3)Gal(b1-3)GlcNAc(b1-6)GalNAc", "in_short": "as §1"}},
  "note": "The list shows a part of the results.",
  "data": [
    {"binder": "B1", "values": [
      {"measurement": "glycan array binding signal (z-score)", "setting": "Kdn(a2-3)Gal(b1-3)GlcNAc", "result": -0.107},
      {"measurement": "glycan array binding signal (z-score)", "setting": "Kdn(a2-3)Gal(b1-4)Glc", "result": -0.131},
      {"measurement": "glycan array binding signal (z-score)", "setting": "Kdn(a2-3)Gal(b1-4)GlcNAc", "result": 0.637},
      {"measurement": "glycan array binding signal (z-score)", "setting": "[1]", "result": -0.336},
      {"measurement": "glycan array binding signal (z-score)", "setting": "Kdn(a2-6)Gal(b1-4)GlcNAc", "result": -0.164},
      {"measurement": "glycan array binding signal (z-score)", "setting": "[2]", "result": -0.07},
      {"measurement": "glycan array binding signal (z-score)", "setting": "[3]", "result": -0.6},
      {"measurement": "glycan array binding signal (z-score)", "setting": "Man(a1-2)Man(a1-3)Man", "result": -0.342},
      {"measurement": "glycan array binding signal (z-score)", "setting": "[4]", "result": 0.048},
      {"measurement": "glycan array binding signal (z-score)", "setting": "[5]", "result": 0.216},
      {"measurement": "glycan array binding signal (z-score)", "setting": "[6]", "result": -0.081},
      {"measurement": "glycan array binding signal (z-score)", "setting": "[7]", "result": 0.607},
      {"measurement": "glycan array binding signal (z-score)", "setting": "[8]", "result": -0.712},
      {"measurement": "glycan array binding signal (z-score)", "setting": "[9]", "result": -0.172},
      {"measurement": "glycan array binding signal (z-score)", "setting": "Man(a1-3)[Man(a1-6)]Man", "result": 0.356},
      {"measurement": "glycan array binding signal (z-score)", "setting": "[10]", "result": -0.73},
      {"measurement": "glycan array binding signal (z-score)", "setting": "[11]", "result": 0.952},
      {"measurement": "glycan array binding signal (z-score)", "setting": "[12]", "result": -0.935},
      {"measurement": "glycan array binding signal (z-score)", "setting": "[13]", "result": -0.529},
      {"measurement": "glycan array binding signal (z-score)", "setting": "[14]", "result": -0.479},
      {"measurement": "glycan array binding signal (z-score)", "setting": "Man(a1-6)Man", "result": 0.232},
      {"measurement": "glycan array binding signal (z-score)", "setting": "Man(b1-4)GlcNAc", "result": -0.269},
      {"measurement": "glycan array binding signal (z-score)", "setting": "MurNAc(b1-4)GlcNAc", "result": 0.035},
      {"measurement": "glycan array binding signal (z-score)", "setting": "Neu5Ac(a2-3)Gal", "result": -0.622},
      {"measurement": "glycan array binding signal (z-score)", "setting": "[15]", "result": -0.438},
      {"measurement": "glycan array binding signal (z-score)", "setting": "[16]", "result": -0.209},
      {"measurement": "glycan array binding signal (z-score)", "setting": "[17]", "result": -0.579},
      {"measurement": "glycan array binding signal (z-score)", "setting": "[18]", "result": -0.186},
      {"measurement": "glycan array binding signal (z-score)", "setting": "[19]", "result": -0.501},
      {"measurement": "glycan array binding signal (z-score)", "setting": "[20]", "result": -0.126},
      {"measurement": "glycan array binding signal (z-score)", "setting": "[21]", "result": -0.503},
      {"measurement": "glycan array binding signal (z-score)", "setting": "[22]", "result": -0.091},
      {"measurement": "glycan array binding signal (z-score)", "setting": "[23]", "result": 0.064},
      {"measurement": "glycan array binding signal (z-score)", "setting": "[24]", "result": -0.399},
      {"measurement": "glycan array binding signal (z-score)", "setting": "[25]", "result": 0.844},
      {"measurement": "glycan array binding signal (z-score)", "setting": "[26]", "result": -0.424},
      {"measurement": "glycan array binding signal (z-score)", "setting": "[27]", "result": -0.677},
      {"measurement": "glycan array binding signal (z-score)", "setting": "[28]", "result": -0.124}
    ]}
  ]
}
